Measured values from PMC11576107.
No constants are given. Whether binding was seen depends on the method and setting. In cells and extracts the contact can be indirect. A result given as binding can be weak or reduced; the word gives no strength. Sequences can lack the tags named with a protein.

Tests used:
Flag-cMLC9 (chicken) [1] = assay: co-IP; Fzd1-10 knockout HEK293 cells, transfected; lysate; Western blot
Flag-cMLC9 (chicken) [2] = assay: co-IP; MDCK cells transfected 24 h; lysis buffer 50 mM Tris pH 7.5, 150 mM NaCl, 1 mM EDTA, 0.5% NP40; IP with Flag M2, GFP or myc antibody and protein G sepharose, or Flag M2 beads; Western blot

binding (Flag-cMLC9 (chicken) [1]): binds | binding (Flag-cMLC9 (chicken) [2]): binds
B1: myc-xDvl2 (protein, UniProt P51142 1-736)
chain: MAETKVIYHLDEEETPYLVKVPVPATDIRLRDFKAALGRGHAKYFFKAMDQDFGVVKEEISDDNAKLPCFNDRVVSWLASSEGSQPDSAPPAPATEVRPEPPPPVPPPIPPPPAERTSGIGDSRPPSFHPNVSGSTEQLDQDNESVISMRRDRVRRRESSEQAGVGRGVNGRTERHLSGYESSSTLLTSEIETSICDSEEDDTMSRFSSSTEQSSASRLLKRHRRRRKQRPPRLERTSSFSSVTDSTMSLNIITVTLNMEKYNFLGISIVGQSNERGDGGIYIGSIMKGGAVAADGRIEPGDMLLQVNDINFENMSNDDAVRVLRDIVHKPGPIVLTVAKCWDPSPQGYFTLPRNEPIHPIDPAAWVSHSAALSGSFPVYPGSASMSSMTSSTSVTETELSHALPPVSLFSLSVHTDLASVVKVMASPESGLEVRDRMWLKITIPNAFLGSDVVDWLYHHVEGFQDRREARKFASNLLKAGFIRHTVNKITFSEQCYYIFGDLTGCENYMTNLSLNDNDGSSGASDQDTLAPLPLPGASPWPLLPTFSYQYQAPHPYSTQPPAYHELSSYSYGMGSAGSQHSEGSRSSGSNRSDGGRGMQKDDRSGVAGVGGGDSKSGSGSESEYSTRSSIRRVGGGEAGPPSERSTSSRLPPHHPPSVHSYAAPGVPLSYNPMMLMMMPPPPLPPPGVCPPNSSVPPGAPPLVRDLASVPPELTATRQSFHMAMGNPSEFFVDVM
